# Measurements published in PubChem BioAssay (Tox21).
# This list holds what a sample rich in hits left over. Inconclusive results are not listed. Calls of active or inactive are those of the source. Calls follow the shape of the dose curve; as a rule, active = well fitted curve in the direction sought with a large enough effect in the repeat runs; inconclusive = weak or mixed curves; inactive = no such curve, though single readings can be large; an effect the other way counts as inactive or inconclusive.
# Legend:
# [1] = qHTS assay to identify aromatase inhibitors - cell viability counter screen (AID 743084); settings: MCF-7 aro ERE viability, CellTiter-Fluor, 24 h; at 70.3 µM (top of the series);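 also: cells stimulated with testosterone during compound exposure; nearly all actives have a fitted effect of over 55% in size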
# [2] = qHTS assay to identify small molecule HDAC inhibitors - cell viability counter screen (AID 1259365); settings: HCT-116 viability, CellTiter-Glo ATP luminescence, 2 h; at 42.5 µM (top of the series); also: nearly all actives have a fitted effect of over 50% in size
# Procedure, shortened: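 HCT-116 wild-type, overnight attachment; 2hr drug exposure, 37C; CellTiter-Glo luminescent ATP readout after 30min RT.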
# % is scaled to controls: 0 for no effect and ±100 for the full control effect.
smiles,measurement,setting,value
O=C(CCCCCCC(=O)Nc1ccccc1)NO,"activity change, negative = cytotoxicity",[1],inactive: -28%
same,"activity change, negative = cytotoxicity",[2],inactive: 0.79%
